PubChem BioAssay AID1259300 | Sanger Institute | 2017
Purpose: 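siRNA screen of kinases and common colorectal cancer mutant genes, alone or with drugs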 (primary screen). Cell system: HCT15 colorectal cancer cells. Reagents: siRNA pool against human genes. Treatment: anchor drug or DMSO vehicle added 24 h after seeding: BYL719 1 µM, cetuximab 5 µg/ml, trametinib 10 nM; drug doses chosen to barely affect viability alone. Measured: 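Cell viability after knock-down, as fraction of non-targeting pool wells averaged over replicates, plus robust z-score for knock-down alone; synergy score per drug (BYL719 1 µM, cetuximab 5 µg/ml, trametinib 10 nM)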. Scale: viability z-score, siRNA alone: higher = more viable cells after knock-down; viability vs non-targeting, siRNA alone: higher = more viable cells. Active means: 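Called active (essential) if viability z-score with knock-down alone falls below -3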. Calls: active = essential: knock-down alone lowers viability (z below -3); inactive = no strong viability loss with knock-down alone.
Here is one part, drawn at random, of 794 deposited reagents. 18 of all reagents (2.3%) were called active. 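Calls rest on knock-down alone, not drug synergy; depositor treated synergy scores above 0.15 as synergistic; drug doses alone had little viability effect.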 The numbers tell different reagents against one gene apart. Viability is capped at 1. Further read-outs or replicates are left out here. Not stated in the record: the amount of reagent, the time to read-out.

PFKFB4 showed viability z-score, siRNA alone 0.625; viability vs non-targeting, siRNA alone 1; inactive.
Against MAPK9, the values are viability z-score, siRNA alone 0.0192; viability vs non-targeting, siRNA alone 0.956; inactive.
Depletion of IRAK2 gave: viability z-score, siRNA alone 0.625; viability vs non-targeting, siRNA alone 1; inactive.
HK2 showed viability z-score, siRNA alone -0.391; viability vs non-targeting, siRNA alone 0.926; inactive.
PDK2 gave viability z-score, siRNA alone 0.625; viability vs non-targeting, siRNA alone 1; inactive.
For PKN2, the values are viability z-score, siRNA alone 0.153; viability vs non-targeting, siRNA alone 0.966; inactive.
With knock-down of TBCK, the screen gave viability z-score, siRNA alone -1.12; viability vs non-targeting, siRNA alone 0.873; inactive.
After knock-down of PRKX, the screen gave viability z-score, siRNA alone 0.625; viability vs non-targeting, siRNA alone 1; inactive.
MASTL scored viability z-score, siRNA alone 0.625; viability vs non-targeting, siRNA alone 1; inactive.
Against ILK #1, the values are viability z-score, siRNA alone 0.625; viability vs non-targeting, siRNA alone 1; inactive.
ILK #2 showed viability z-score, siRNA alone 0.625; viability vs non-targeting, siRNA alone 1; inactive.
For RPS6KA6, the values are viability z-score, siRNA alone 0.625; viability vs non-targeting, siRNA alone 1; inactive.
Depletion of FCSK came out at: viability z-score, siRNA alone 0.625; viability vs non-targeting, siRNA alone 1; inactive.
Depletion of MYLK4 came out at: viability z-score, siRNA alone 0.625; viability vs non-targeting, siRNA alone 1; inactive.
With knock-down of TYRO3 the results were viability z-score, siRNA alone 0.625; viability vs non-targeting, siRNA alone 1; inactive.
SMC1A gave viability z-score, siRNA alone 0.625; viability vs non-targeting, siRNA alone 1; inactive.
After knock-down of POMK the results were viability z-score, siRNA alone 0.604; viability vs non-targeting, siRNA alone 0.998; inactive.
After knock-down of SBK1, the screen gave viability z-score, siRNA alone -0.566; viability vs non-targeting, siRNA alone 0.913; inactive.
After knock-down of NPR2, the screen gave viability z-score, siRNA alone -3.04; viability vs non-targeting, siRNA alone 0.733; active.
Against STK11 the deposit lists viability z-score, siRNA alone -0.749; viability vs non-targeting, siRNA alone 0.9; inactive.
After knock-down of ABL2, the record shows viability z-score, siRNA alone 0.615; viability vs non-targeting, siRNA alone 0.999; inactive.
After knock-down of CDK1, the screen gave viability z-score, siRNA alone 0.625; viability vs non-targeting, siRNA alone 1; inactive.
Silencing of TNNI3K came out at: viability z-score, siRNA alone -0.399; viability vs non-targeting, siRNA alone 0.926; inactive.
ACVR1B gave viability z-score, siRNA alone 0.356; viability vs non-targeting, siRNA alone 0.98; inactive.
Silencing of PHKG1 came out at: viability z-score, siRNA alone 0.625; viability vs non-targeting, siRNA alone 1; inactive.
TRPM7 gave viability z-score, siRNA alone 0.0437; viability vs non-targeting, siRNA alone 0.958; inactive.
TGFBR3 showed viability z-score, siRNA alone 0.625; viability vs non-targeting, siRNA alone 1; inactive.
Against HCK, the values are viability z-score, siRNA alone 0.495; viability vs non-targeting, siRNA alone 0.991; inactive.
After knock-down of STK32C, the record shows viability z-score, siRNA alone 0.625; viability vs non-targeting, siRNA alone 1; inactive.
TP53 scored viability z-score, siRNA alone -0.158; viability vs non-targeting, siRNA alone 0.943; inactive.
Silencing of CDK5R2 resulted in: viability z-score, siRNA alone 0.5; viability vs non-targeting, siRNA alone 0.991; inactive.
With knock-down of PRKAG1 the results were viability z-score, siRNA alone -0.324; viability vs non-targeting, siRNA alone 0.931; inactive.
With knock-down of AK5 the results were viability z-score, siRNA alone 0.625; viability vs non-targeting, siRNA alone 1; inactive.
After knock-down of BMAL1, the screen gave viability z-score, siRNA alone -3.39; viability vs non-targeting, siRNA alone 0.708; active.
PAK3 gave viability z-score, siRNA alone -1.1; viability vs non-targeting, siRNA alone 0.875; inactive.
Against MUSK, the values are viability z-score, siRNA alone 0.625; viability vs non-targeting, siRNA alone 1; inactive.

Not a retest: entries from further up.
PKN2 — viability z-score, siRNA alone = 0.153; viability vs non-targeting, siRNA alone = 0.966; Call = inactive
TBCK — viability z-score, siRNA alone = -1.12; viability vs non-targeting, siRNA alone = 0.873; Call = inactive
